{"source": "PubChem BioAssay AID1259405 (NCATS, 2018)", "assay": "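Mouse-designed siRNAs used to find CHO productivity engineering targets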 (primary screen)", "cell system": "Chinese hamster CHO-K1 ovary cells with stable secreted eGFP expression", "reagents": "single siRNA against mouse genes, 0.8 pmol siRNA per well (2 µl of 400 nM stock)", "timing": "3 days", "detection": "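Percent of the per-plate non-targeting control median for intracellular GFP per well by laser scanning cytometry and for cell viability by ATP luminescence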", "direction": "GFP, % of control: higher = more GFP per well, higher productivity; viability (ATP), % of control: higher = more viable cells (more ATP)", "rule for the call": "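Called active when intracellular GFP, relative to negative control, is at or above 120%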", "note": "This is an unselected part of about 50,000 reagents. Of all reagents, about 4,000 (8%) are marked active. 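Mouse siRNA library applied to hamster cells; one well for each siRNA.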"}
The first 2 records as a preview:
{"target": "Or5m13b", "PubChem SID": "SID363544695", "GFP, % of control": 55.8, "viability (ATP), % of control": 40.2, "Outcome": "inactive"}
{"target": "Or5m13b", "PubChem SID": "SID363551023", "GFP, % of control": 54.8, "viability (ATP), % of control": 84.9, "Outcome": "inactive"}

Results, from the first entry:
{"target": "Or5m13b", "PubChem SID": "SID363544695", "GFP, % of control": 55.8, "viability (ATP), % of control": 40.2, "Outcome": "inactive"}
{"target": "Or5m13b", "PubChem SID": "SID363551023", "GFP, % of control": 54.8, "viability (ATP), % of control": 84.9, "Outcome": "inactive"}
{"target": "Or5m13b", "PubChem SID": "SID363557572", "GFP, % of control": 62.3, "viability (ATP), % of control": 54.2, "Outcome": "inactive"}
{"target": "Nek5", "PubChem SID": "SID363547370", "GFP, % of control": 166, "viability (ATP), % of control": 115, "Outcome": "active"}
{"target": "Nek5", "PubChem SID": "SID363558139", "GFP, % of control": 41.6, "viability (ATP), % of control": 48.3, "Outcome": "inactive"}
{"target": "Nek5", "PubChem SID": "SID363559897", "GFP, % of control": 101, "viability (ATP), % of control": 80.8, "Outcome": "inactive"}
{"target": "Pglyrp4", "PubChem SID": "SID363568637", "GFP, % of control": 89.2, "viability (ATP), % of control": 108, "Outcome": "inactive"}
{"target": "Pglyrp4", "PubChem SID": "SID363576029", "GFP, % of control": 12.5, "viability (ATP), % of control": 21.7, "Outcome": "inactive"}
{"target": "Pglyrp4", "PubChem SID": "SID363578845", "GFP, % of control": 36.3, "viability (ATP), % of control": 43.7, "Outcome": "inactive"}
{"target": "Espl1", "PubChem SID": "SID363581775", "GFP, % of control": 94.5, "viability (ATP), % of control": 60.5, "Outcome": "inactive"}
{"target": "Espl1", "PubChem SID": "SID363589269", "GFP, % of control": 91.1, "viability (ATP), % of control": 47.9, "Outcome": "inactive"}
{"target": "Pfkfb4", "PubChem SID": "SID363574980", "GFP, % of control": 71.4, "viability (ATP), % of control": 66.2, "Outcome": "inactive"}
{"target": "Pfkfb4", "PubChem SID": "SID363580612", "GFP, % of control": 86.7, "viability (ATP), % of control": 81.7, "Outcome": "inactive"}
{"target": "Pfkfb4", "PubChem SID": "SID363582724", "GFP, % of control": 76.3, "viability (ATP), % of control": 59.6, "Outcome": "inactive"}
{"target": "Vmn1r28", "PubChem SID": "SID363556710", "GFP, % of control": 88.2, "viability (ATP), % of control": 58.8, "Outcome": "inactive"}
{"target": "Vmn1r28", "PubChem SID": "SID363563614", "GFP, % of control": 108, "viability (ATP), % of control": 65.6, "Outcome": "inactive"}
{"target": "Vmn1r28", "PubChem SID": "SID363587160", "GFP, % of control": 67.1, "viability (ATP), % of control": 88.7, "Outcome": "inactive"}
{"target": "Mnt", "PubChem SID": "SID363562389", "GFP, % of control": 69.2, "viability (ATP), % of control": 76.3, "Outcome": "inactive"}
{"target": "Mnt", "PubChem SID": "SID363567527", "GFP, % of control": 76.1, "viability (ATP), % of control": 55.5, "Outcome": "inactive"}
{"target": "Mnt", "PubChem SID": "SID363584884", "GFP, % of control": 63, "viability (ATP), % of control": 44.5, "Outcome": "inactive"}
{"target": "Apbb3", "PubChem SID": "SID363546735", "GFP, % of control": 88.4, "viability (ATP), % of control": 72.9, "Outcome": "inactive"}
{"target": "Apbb3", "PubChem SID": "SID363548491", "GFP, % of control": 70.6, "viability (ATP), % of control": 89.9, "Outcome": "inactive"}
{"target": "Apbb3", "PubChem SID": "SID363560669", "GFP, % of control": 84.3, "viability (ATP), % of control": 71.2, "Outcome": "inactive"}
{"target": "Mapkapk5", "PubChem SID": "SID363547530", "GFP, % of control": 119, "viability (ATP), % of control": 99.7, "Outcome": "inactive"}
{"target": "Mapkapk5", "PubChem SID": "SID363558299", "GFP, % of control": 36.7, "viability (ATP), % of control": 45.2, "Outcome": "inactive"}
{"target": "Mapkapk5", "PubChem SID": "SID363560057", "GFP, % of control": 92.8, "viability (ATP), % of control": 92.7, "Outcome": "inactive"}
{"target": "Nf2", "PubChem SID": "SID363572218", "GFP, % of control": 52.4, "viability (ATP), % of control": 78.8, "Outcome": "inactive"}
{"target": "Nf2", "PubChem SID": "SID363573978", "GFP, % of control": 50.6, "viability (ATP), % of control": 78.5, "Outcome": "inactive"}
